Source: paper PMC6297782, “DNA-Mediated Interferon Signature Induction by SLE Serum Occurs in Monocytes Through Two Pathways: A Mechanism to Inhibit Both Pathways” (Frontiers in Immunology, 2018)
No constants are given. Whether binding was seen depends on the method and setting.

Amino acid sequences for entries named in this document (tags omitted). A change or cut given only in a name is not applied to a line headed by its entry.
UniProt Q9NR96: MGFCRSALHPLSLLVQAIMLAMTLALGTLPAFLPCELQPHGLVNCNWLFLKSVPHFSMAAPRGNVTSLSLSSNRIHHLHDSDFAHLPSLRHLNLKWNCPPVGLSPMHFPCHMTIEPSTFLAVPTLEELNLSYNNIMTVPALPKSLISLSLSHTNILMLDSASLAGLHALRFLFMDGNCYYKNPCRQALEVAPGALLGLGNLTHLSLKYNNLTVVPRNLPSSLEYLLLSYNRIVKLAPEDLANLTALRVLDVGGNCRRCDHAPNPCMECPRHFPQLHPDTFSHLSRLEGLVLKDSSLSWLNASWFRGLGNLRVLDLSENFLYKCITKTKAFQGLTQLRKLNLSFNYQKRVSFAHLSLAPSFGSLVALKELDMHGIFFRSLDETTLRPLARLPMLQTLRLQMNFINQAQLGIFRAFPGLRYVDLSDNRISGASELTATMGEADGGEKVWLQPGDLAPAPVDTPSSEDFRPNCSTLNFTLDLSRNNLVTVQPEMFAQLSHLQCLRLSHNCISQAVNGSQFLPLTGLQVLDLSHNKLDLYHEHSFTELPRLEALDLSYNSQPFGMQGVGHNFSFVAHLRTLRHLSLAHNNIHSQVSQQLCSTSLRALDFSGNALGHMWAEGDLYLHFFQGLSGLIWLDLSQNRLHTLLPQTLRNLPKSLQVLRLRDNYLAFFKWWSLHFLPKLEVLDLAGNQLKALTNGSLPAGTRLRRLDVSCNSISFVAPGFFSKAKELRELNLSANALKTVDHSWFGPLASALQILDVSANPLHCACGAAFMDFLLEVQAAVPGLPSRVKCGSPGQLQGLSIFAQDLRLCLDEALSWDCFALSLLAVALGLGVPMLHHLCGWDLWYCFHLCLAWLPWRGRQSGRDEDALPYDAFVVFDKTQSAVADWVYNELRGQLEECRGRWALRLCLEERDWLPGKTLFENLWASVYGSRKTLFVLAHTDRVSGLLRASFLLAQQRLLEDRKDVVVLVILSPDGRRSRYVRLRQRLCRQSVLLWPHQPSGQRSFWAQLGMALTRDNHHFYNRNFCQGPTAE

Target: TLR9 (UniProt Q9NR96)
Test: AlphaScreen or HTRF; AlphaScreen with streptavidin-conjugated donor beads and nickel chelate acceptor beads; 50 mM Tris-HCl pH 7.4, 100 mM NaCl, 1% BSA, 0.01% Tween 20; labeled TLR9 with varying concentrations of DWEYS, 30 min, room temperature; both purified

For DWEYS (biotin (position not given)) [biotinylated DWEYS], the binding was “no binding”.
